Reference: publication PMC9769691
These are yes or no findings as the source states them, for the method shown. Binding calls can cover weak binding; strength is not graded here.

Biological target: Nosema bombycis Sec31-1 (NbSec31-1) (Nosema bombycis) (UniProt R0MLW8)
Test: two-hybrid; bait in pGBKT7-BK and prey in pGADT7-AD cotransformed into Y2H Gold yeast cells; colonies from SD-Leu/-Trp plates cultured on SD-Ade/-His/-Leu/-Trp plates containing X-alpha-gal at 28°C

binding | Substance
binds | Nosema bombycis Sec13 (NbSec13) (from UniProt R0KZ01)
binds | Nosema bombycis Sec23-1 (NbSec23-1) (from UniProt R0MF96)
